Measurements taken from PubChem BioAssay AID493014 (National Center for Advancing Translational Sciences (NCATS), 2011).
This is one part of the list. Further columns of the screen follow, without active or inactive calls. Compounds called inactive in the main read-out are mostly missing here. Potencies come from curve fits of mixed quality, noted in brackets.

Test: qHTS Assay to Find Inhibitors of Chronic Active B-Cell Receptor Signaling
Details: ABC-DLBCL IkBa-CBG/CBR reporter, luminescence ratio (green luciferase fused to IkBa over red control in TMD8 lymphoma cells), 4 h
Method in brief: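 Concentration-response series (up to 46 uM) were applied to TMD8 dual-reporter cells for 4 h at 37C with doxycycline. Green/red ratio, after filter-overlap correction, defined %Activity; red signal alone was normalised to basal cells and zero luminescence.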

[1] = measured here: CBR red luminescence, cell number
[2] = measured here: IkBa-CBG green luminescence

Compound | AC50 [1] | AC50 [2]
CCOC(=O)c1[nH]c(C)c(/C(O)=C2\C(=O)C(=O)N(CCCN3CCOCC3)C2c2cccs2)c1C (stereo not drawn) | 31.6 µM [rising, single point] | –
Cc1nc(OCC(=O)c2ccc(Cl)cc2)c(C#N)c2c1COC(C)(C)C2 | 0.0184 µM [falling, full curve, poor fit] | –
Cc1cc2c3c(c1)C(C)(c1ccccc1)CC(C)(C)N3C(=O)C21C(C#N)=C(N)OC2=C1C(=O)CC(C)(C)C2 (stereo not drawn) | 18.4 µM [falling, single point] | 25.9 µM [rising, partial curve, poor fit]
Cn1nc([N+](=O)[O-])nc1Sc1nnc(-c2ccccc2)o1 | 1.03 µM [falling, partial curve, poor fit] | 6.51 µM [falling, single point]
Cc1[nH]c2ccccc2c1/C=N\NC(=O)CNc1ccc2c(c1)OCO2 | 10.3 µM [falling, partial curve] | –
Cc1ccc(Cl)c2sc(NC(=O)C3=COCCO3)nc12 | 20 µM [falling, single point] | –
CC(C)C[C@H](NC(=O)c1nc[nH]c1C(=O)N1CCC(C)CC1)C(=O)OC(C)(C)C | 35.5 µM [rising, partial curve, poor fit] | –
O=C(CSc1ncnc2sc3c(c12)CCCCC3)NCc1ccco1 | 0.103 µM [rising, full curve, poor fit] | 16.4 µM [falling, single point]
COc1ccc(OC)c2sc(N(CCN(C)C)C(=O)/C=C/c3cccs3)nc12 | 17.8 µM [falling, partial curve, poor fit] | –
CCn1cc(S(=O)(=O)CC(=O)Nc2ccc3c(c2)OCCO3)c2ccccc21 | 15.8 µM [falling, single point] | –
O=C(OCCCN1CCCC1)C1(c2ccccc2)CCCC1 | 5.17 µM [falling, single point] | 4.11 µM [rising, single point]
NS(=O)(=O)c1ccc(NC2(C(=O)O)CCCC2)cc1 | 10 µM [rising, partial curve, poor fit] | –
Cc1c(/C(Cc2ccccc2)=N/O)c2ccccc2n1C | 14.6 µM [rising, partial curve, poor fit] | –
COC(=O)c1sccc1NC(=O)Nc1ccccc1OC | 11.2 µM [falling, partial curve] | –
CCC1=Nc2cc(C(=O)NCc3ccco3)ccc2Sc2ccccc21 | 11.6 µM [rising, partial curve] | 11.6 µM [falling, partial curve]
COc1ccc(/C=C2\SC(=S)N(CC(=O)NCCO)C2=O)cc1 | 5.01 µM [falling, partial curve] | –
Cc1ccc(/C=N/NC(=O)CSc2nc3ccccc3n2Cc2ccccc2)o1 | 9.2 µM [falling, partial curve, poor fit] | –
CCOC(=O)NC(c1ccccc1)C1CCCCC1=O (stereo not drawn) | 3.66 µM [falling, partial curve] | 2.31 µM [rising, partial curve, poor fit]
COc1ccc(OC)c(CCNC(=O)CC2(CC3=NS(=O)(=O)c4ccccc4N3)CCCC2)c1 | 8.91 µM [falling, partial curve, poor fit] | –
Cc1ccc(-c2cc(C(=O)O)c3cc(Br)ccc3n2)s1 | 2.82 µM [falling, full curve, poor fit] | –

Compound | AC50 [1] | AC50 [2]
O=c1[nH][nH]c(C(F)(F)F)c1C=Nc1cccc(Cl)c1 | 12.6 µM [rising, partial curve] | –
COc1ccc(/C=C/C(=O)c2ccc(C)c([N+](=O)[O-])c2)cc1O | – | 29.1 µM [falling, single point]
COc1cc(NC(=O)CSCc2ccc(Cl)cc2Cl)c(C(=O)O)cc1OC | 35.5 µM [falling, single point] | –
COc1ccccc1CN(Cc1nc2ccccc2c(=O)[nH]1)S(=O)(=O)c1ccc(C)cc1 | 0.651 µM [falling, full curve, poor fit] | –
O=C1c2ccccc2S(=O)(=O)N1Cc1nnc(-c2ccccc2Br)o1 | 6.51 µM [falling, partial curve, poor fit] | –
CC(C)CCNC(=O)COC(=O)c1cc(Br)c(Br)s1 | 35.5 µM [rising, single point] | –
CCN(CC)CCNC(=O)c1c(O)c2cccc3c2n(c1=O)CCC3 | 22.4 µM [falling, single point] | –
Cc1cccn2c(=O)c(C=O)c(Cl)nc12 | 22.4 µM [falling, single point] | 12.6 µM [rising, partial curve, poor fit]
Cc1cccc(C)c1NC(=S)N1CCCN(Cc2ccc(F)cc2)C1 | 12.6 µM [falling, single point] | –
COc1cc2ncnc(NCc3ccc(C)cc3)c2cc1OC | 29.1 µM [falling, single point] | –
COc1cccc(NC(=O)c2ccnc(N3CCC(C(=O)NCc4cc(OC)ccc4OC)CC3)c2)c1 | 35.5 µM [falling, single point] | –
COc1ccc(-c2ccc(CCC(=O)O)n2NC(N)=O)cc1 | 11.2 µM [falling, partial curve] | –
COc1ccc(-c2csc3ncnc(Sc4nnnn4C)c23)cc1 | 6.51 µM [falling, full curve] | –
Cc1nc(Cl)sc1C(=O)Nc1ccc(C(C)(C)C)cc1 | 1.26 µM [falling, partial curve, poor fit] | –
CCCCC1CCC(C(=O)Nc2ccccc2N2CCOCC2)CC1 (stereo not drawn) | 32.6 µM [rising, partial curve, poor fit] | –
Cc1cc(NC(=O)/C=C/C(=O)N(CC(=O)NC2CCCC2)c2cccc3ccccc23)no1 | – | 14.1 µM [rising, partial curve, poor fit]
Cc1cc(C)n2nc(C(=O)Nc3ccc4c(c3)CCC4)nc2n1 | 0.251 µM [rising, full curve, poor fit] | –
CC1=CC(c2ccc(Cl)cc2)n2nc(NC(=O)CCCC(=O)O)nc2N1 (stereo not drawn) | 0.631 µM [rising, partial curve, poor fit] | –
CN(CC(=O)NCc1ccccc1)S(=O)(=O)c1cnc[nH]1 | 29.1 µM [rising, single point] | –
O=C(Nc1ccc2c(c1)OCO2)C(c1ccccc1)N1CCN(C(=O)c2ccco2)CC1 (stereo not drawn) | 1.46 µM [rising, partial curve, poor fit] | –

Compound | AC50 [1] | AC50 [2]
C=CC[C@@H](CC(=O)N(CCO)Cc1ccccc1)C(=O)N[C@H](COC(=O)[C@@H](CC=C)Cc1ccc(F)cc1)Cc1ccccc1 | 29.1 µM [falling, single point] | –
CCN1C(=O)NC(c2cccnc2)C(C(=O)OC)=C1C (stereo not drawn) | 2.31 µM [falling, partial curve, poor fit] | –
COc1ccc(CNCCC(c2ccccc2)c2ccc(OC(C)C)cc2)cc1OC (stereo not drawn) | 35.5 µM [falling, single point] | –
COc1ccc(OC)c(N(CC(=O)NN=C2CCN(C)CC2)S(=O)(=O)c2ccccc2)c1 | 3.16 µM [falling, partial curve, poor fit] | –
CC(=O)OC(C(=O)NCc1ccco1)c1cccnc1 (stereo not drawn) | 5.8 µM [falling, single point] | –
COc1ccc(C(=O)OC2CCN(c3ncc(C(F)(F)F)cc3Cl)CC2)cc1 | 0.112 µM [rising, full curve, poor fit] | –
CC1CCN(C(=O)c2cc3ccccc3o2)CC1 | 4.61 µM [rising, single point] | –
CC1c2ccccc2SC(CCCN(C)C)c2ccccc21 (stereo not drawn) | 18.4 µM [falling, single point] | –
COc1ccc(C(=O)NNC2=C(C(=O)C(F)(F)F)CCC2)cc1 | 2 µM [falling, full curve, poor fit] | –
O=C(Nc1ccc2c(c1)OCO2)c1ccccn1 | 20.6 µM [falling, single point] | –
CC(=O)Nc1ccc(S(=O)(=O)NCc2cn3ccsc3n2)cc1 | 6.51 µM [falling, single point] | –
C=CCc1c(O)c(CC)cc2c(C)cc(=O)oc12 | 3.16 µM [rising, partial curve, poor fit] | –
COn1c(SCc2ccc(Cl)cc2)nc2ccccc2c1=O | 7.08 µM [rising, partial curve] | –
CN(C)CCCNC(=O)c1cc(C(=O)c2ccccc2)c[nH]1 | 1.12 µM [falling, full curve] | –
COc1ccc(C(=O)c2sc(Nc3cccc(OC)c3)c(C(=O)Nc3cccc(C)c3C)c2N)cc1 | 5.8 µM [falling, partial curve, poor fit] | –
O=C(NCc1ccco1)c1cc(C(=O)C2CCCCC2)c[nH]1 | 15.8 µM [rising, partial curve, poor fit] | –
COc1cc(/C=C2\S/C(=N/S(=O)(=O)c3ccccc3)NC2=O)c([N+](=O)[O-])cc1OC | 20.6 µM [rising, single point] | 20.6 µM [falling, single point]
COC(=O)c1ccc(NCC(=O)c2ccccc2)cc1 | 1.58 µM [rising, partial curve, poor fit] | –
COc1cccc(CNCC(O)(c2ccc(Cl)cc2)c2ccc(Cl)cc2)c1 | 10 µM [falling, partial curve] | –
COC(=O)[C@H](CC(C)C)NC(=O)Cn1cnc2c(NCc3ccccc3)ncnc21 | 6.51 µM [rising, single point] | –

Single records, as listed above. Order of values: AC50 [1] | AC50 [2]
CC1CCN(C(=O)c2cc3ccccc3o2)CC1 in the list: 4.61 µM [rising, single point] | –
COn1c(SCc2ccc(Cl)cc2)nc2ccccc2c1=O in the list: 7.08 µM [rising, partial curve] | –
CC(=O)OC(C(=O)NCc1ccco1)c1cccnc1 (stereo not drawn) in the list: 5.8 µM [falling, single point] | –
COc1ccc(C(=O)OC2CCN(c3ncc(C(F)(F)F)cc3Cl)CC2)cc1 in the list: 0.112 µM [rising, full curve, poor fit] | –
